According to PubChem BioAssay AID662 (National Center for Advancing Translational Sciences (NCATS), 2007):
The other results are listed elsewhere or left out. Shown are side measurements of this screen, not its main read-out; they come without a call. Most of these compounds were active or inconclusive in the main read-out, so they are no random draw. Words in brackets tell the shape of the fitted curve; partial curves, single points and poor fits give uncertain potencies.

Assay: Cell signaling CRE-BLA (Fsk stim)
Settings: CHO CRE-bla reporter (cAMP response element driving beta-lactamase), forskolin EC10, beta-lactamase ratio; measured here: 460 nm blue channel
Outline: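 Reporter-gene assay: CHO cells with beta-lactamase behind cAMP responsive elements, co-treated with compound and EC10 NKH 477 for 3 hours at 37 degrees Celsius. Activity came from the 460/530 nm CCF4 emission ratio.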

Compound	AC50
O=C(NCCCN1CCN(c2ccccc2F)CC1)C1CCN(S(=O)(=O)N2CCOCC2)CC1	25.1 µM [falling, single point]
CCN(C(=O)c1cn(C)c(=O)c2cc(OC)c(OC)cc12)c1ccccc1C	5.01 µM [rising, partial curve]
CCOC(=O)c1ccc2c(c1)nc(SCc1cn3ccsc3n1)n2CC	2.51 µM [rising, partial curve]
COc1ccc(OC)c(NC(=O)CSc2nc3cccnc3n2C)c1	10 µM [rising, single point]
CSC1=NCCN1C(=O)c1ccc(Br)o1	12.6 µM [rising, single point]
CC(=O)Nc1cccc(Oc2cc(C#N)c(C#N)cc2N2CCOCC2)c1	5.01 µM [rising, full curve]
CCc1ccc2c(CN(CC)Cc3nc4ccccc4c(=O)[nH]3)cc(=O)oc2c1	15.8 µM [rising, single point]
COc1nnc(-c2ccc(C)c(S(=O)(=O)NCCO)c2)c2ccccc12	10 µM [rising, partial curve]
COc1cc(OC)cc(N(C(=O)c2ccco2)C(C(=O)NC2CCCC2)c2ccc(N(C)C)cc2)c1 (centres undefined)	0.0794 µM [falling, single point]
COCCn1c(=O)c(-c2cccc(C#N)c2)nc2cnc(Oc3ccccc3)nc21	25.1 µM [rising, single point]
Cn1c(=O)c2c(SCc3ccccn3)nc(C3CC3)nc2n(C)c1=O	2.51 µM [rising, full curve]
COc1ccc(CNC(=O)C(C)N(Cc2ccco2)C(=O)c2snc(C(N)=O)c2N)cc1 (centres undefined)	1 µM [falling, partial curve]
Cc1noc(C)c1CSc1nc2ccccc2c(=O)n1-c1ccccc1	10 µM [rising, partial curve]
COc1ccc(C(=O)c2oc3ccc(OC)cc3c2N)cc1	12.6 µM [rising, partial curve]
CCOc1cc(-c2nn3cnnc3s2)cc(OCC)c1OCC	0.1 µM [rising, full curve]
COc1cccc(C2=CC(c3cccc(OC)c3OC)n3nnnc3N2)c1 (centres undefined)	12.6 µM [rising, partial curve]
O=c1cnc2cnc(N3CCNCC3)nc2n1Cc1cccs1	12.6 µM [rising, single point]
Cc1cccn2c(=O)c3cc(C(=O)Nc4ccc(N(C)C)cc4)n(C)c3nc12	0.126 µM [rising, full curve]
CCNc1nc(SCC(=O)OC)nc(N2CCOCC2)n1	5.01 µM [rising, partial curve]
C=CCn1c(COc2ccccc2F)nnc1SCC(=O)NC(=O)NCc1ccco1	3.16 µM [falling, full curve]
Cc1c(C(=O)OC2CCCC2)[nH]c2c1C(=O)CC(c1ccco1)C2 (centres undefined)	0.631 µM [rising, full curve]
COCCNC(=O)c1cc(-c2ccccc2OC)on1	10 µM [rising, single point]

Compound	AC50
O=S(=O)(c1cccc(-c2nnc(SCc3ccc(Cl)cc3)o2)c1)N1CCCCC1	0.0794 µM [falling, partial curve, poor fit]
Cc1noc(C)c1S(=O)(=O)N1CCC(C(=O)NCCC2=CCCCC2)CC1	3.16 µM [rising, single point]
COc1ccc(CNC(=O)c2cnc3scc(C)n3c2=O)cc1	10 µM [rising, partial curve]
COc1ccc(Br)cc1C1SCCN1S(C)(=O)=O (centres undefined)	0.2 µM [rising, single point]
O=C(NC1CCCC1)c1cnn2c(C(F)(F)F)cc(-c3ccco3)nc12	5.01 µM [rising, partial curve]
CN(C)c1nc(-c2ccccc2)c2cnn(Cc3ccccc3)c2n1	12.6 µM [rising, partial curve]
CN(C(=O)COC(=O)C1CCN(S(=O)(=O)c2cccs2)CC1)C1CCS(=O)(=O)C1 (centres undefined)	0.316 µM [falling, full curve]
N#Cc1c(SCC(=O)Nc2nccs2)nc2c(c1-c1ccco1)CCCC2	5.01 µM [rising, partial curve]
CCS(=O)(=O)N1CCC(C(=O)N2CCN(c3ccccc3)CC2)CC1	25.1 µM [falling, single point]
O=C(OCn1nnc2ccccc2c1=O)c1cn(-c2ccccc2)nc1-c1cccnc1	6.31 µM [rising, partial curve]
Cc1cc(Cl)nc2ccc(Cc3ccc4nc(Cl)cc(C)c4c3)cc12	2.51 µM [rising, partial curve]
COc1ccc(N2CCN(c3oc(-c4ccco4)nc3C#N)CC2)cc1	10 µM [rising, partial curve]
CCC(C)[C@H](NC(=O)NCc1cccc(OC)c1)C(=O)O (some centres undefined)	1.58 µM [falling, full curve, poor fit]
Nc1nc(Cl)nc2c1ncn2[C@@H]1O[C@@H](CO)[C@@H](O)[C@H]1O	20 µM [rising, partial curve, poor fit]
CCNC(=O)N1CCNC(=O)C1CC(=O)OC (centres undefined)	0.00398 µM [falling, full curve]
COc1cccc(C2=NOC(C(=O)NCc3ccccc3)C2)c1 (centres undefined)	25.1 µM [rising, single point]
CCC(C)Sc1nc2c(c(=O)[nH]c(=O)n2C)n1CCc1ccccc1 (centres undefined)	3.98 µM [rising, partial curve]
Cc1c(CN2CCC(C)CC2)c(=O)n(-c2ccccc2)n1C	0.794 µM [falling, full curve]
Cc1ccccc1-c1nnc(SCC(=O)Nc2ccc3c(c2)OCCO3)n1N	2.51 µM [falling, full curve]
Cc1onc(-c2ccccc2Cl)c1C(=O)Nc1sc2c(c1C#N)CCC2	10 µM [rising, single point]
CCC(=O)Oc1ccc2c(C)cc(=O)oc2c1C	25.1 µM [rising, single point]
CCOc1ccc(C2Oc3nc(SC)nnc3-c3ccccc3N2C(C)=O)cc1OC (centres undefined)	0.794 µM [rising, full curve, poor fit]

3 entries from above, arranged by SMILES length, rising:
Compound	AC50
CCC(=O)Oc1ccc2c(C)cc(=O)oc2c1C	25.1 µM [rising, single point]
N#Cc1c(SCC(=O)Nc2nccs2)nc2c(c1-c1ccco1)CCCC2	5.01 µM [rising, partial curve]
O=C(OCn1nnc2ccccc2c1=O)c1cn(-c2ccccc2)nc1-c1cccnc1	6.31 µM [rising, partial curve]
